Values quoted from earlier work, collected in patent US20210030802A1, “GLUCOCORTICOID-RESISTANT LEUKOCYTES AND THEIR USE IN THE TREATMENT OF CANCERS AND VIRUSES” (CONSTANT BIOTECHNOLOGY, LLC, priority 2018, published 2021).
At least one compound was matched to its structure with a doubt left.

How the values were obtained:
MLO-Y4 cells = details: cited from earlier work
MC3T3-E1 cells = details: cited from earlier work

C[C@@H]1C[C@H]2[C@@H]3CCC4=CC(=O)C=C[C@]4(C)[C@@]3(F)[C@@H](O)C[C@]2(C)[C@@]1(O)C(=O)CO [DEX, dexamethasone]
Apoptosis, cells transfected with the gene for HSD11B2, DEX-treated (MLO-Y4 cells; DEX 1 μM, approximate numbers): ~12%
Apoptosis in DEX-treated group (MLO-Y4 cells; DEX 1 μM, control group 6%, approximate numbers): ~24%
Apoptosis, HSD11B2 gene plus siRNA against HSD11B2, treated with DEX (MLO-Y4 cells; adenoviral system, control arm 17%): 25%
Apoptosis, cells transduced with the gene for HSD2 prior to DEX treatment (MC3T3-E1 cells; DEX 100 nM, approximate numbers): ~14%
Apoptosis in DEX-treated group (MC3T3-E1 cells; DEX 100 nM, control group 7%, approximate numbers): ~29%
Apoptosis, HSD11B2 gene plus siRNA against HSD11B2, treated with DEX (MC3T3-E1 cells; adenoviral system, control arm 22%): 37%
